Reference: PMC3224144

What was measured:
Assay in all cases: two-hybrid; array-based yeast two-hybrid screens; each protein as bait (Gal4 DNA-binding domain) and as prey (Gal4 activation domain), N- and C-terminal fusions; bait-prey vector pairs pDEST32-pDEST22, pGBKT7g-pGADT7g, pGBKT7g-pGADCg, pGBKCg-pGADCg, pGBKCg-pGADT7g; ten configurations a pair; positives retested
[1] = molecular target: T1, Nu1 (bacteriophage lambda) (UniProt P03707)
T1 sequence: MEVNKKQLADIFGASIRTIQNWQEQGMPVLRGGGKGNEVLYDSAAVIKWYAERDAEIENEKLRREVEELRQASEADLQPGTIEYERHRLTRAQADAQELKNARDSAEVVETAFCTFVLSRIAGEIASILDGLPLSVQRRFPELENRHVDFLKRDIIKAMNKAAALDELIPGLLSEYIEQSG

[2] = molecular target: T2, Integrase (Int) (bacteriophage lambda) (UniProt P03700)
T2 sequence: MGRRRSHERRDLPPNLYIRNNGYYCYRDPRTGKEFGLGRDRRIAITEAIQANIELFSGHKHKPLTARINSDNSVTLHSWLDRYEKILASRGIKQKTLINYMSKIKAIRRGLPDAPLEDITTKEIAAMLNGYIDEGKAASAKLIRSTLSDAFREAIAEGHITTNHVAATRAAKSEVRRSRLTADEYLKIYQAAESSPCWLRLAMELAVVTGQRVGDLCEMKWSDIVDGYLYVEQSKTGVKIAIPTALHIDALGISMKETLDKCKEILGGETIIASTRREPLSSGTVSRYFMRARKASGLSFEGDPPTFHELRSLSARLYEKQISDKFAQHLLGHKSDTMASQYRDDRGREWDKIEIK

[3] = molecular target: T3, RexB (bacteriophage lambda) (UniProt P03759)
T3 sequence: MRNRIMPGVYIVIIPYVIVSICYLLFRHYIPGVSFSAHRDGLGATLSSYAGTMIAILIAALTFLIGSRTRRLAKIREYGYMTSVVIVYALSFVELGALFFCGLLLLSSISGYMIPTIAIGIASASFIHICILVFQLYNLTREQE

[4] = molecular target: T4, tape measure protein H (bacteriophage lambda) (UniProt P03736)
T4 sequence: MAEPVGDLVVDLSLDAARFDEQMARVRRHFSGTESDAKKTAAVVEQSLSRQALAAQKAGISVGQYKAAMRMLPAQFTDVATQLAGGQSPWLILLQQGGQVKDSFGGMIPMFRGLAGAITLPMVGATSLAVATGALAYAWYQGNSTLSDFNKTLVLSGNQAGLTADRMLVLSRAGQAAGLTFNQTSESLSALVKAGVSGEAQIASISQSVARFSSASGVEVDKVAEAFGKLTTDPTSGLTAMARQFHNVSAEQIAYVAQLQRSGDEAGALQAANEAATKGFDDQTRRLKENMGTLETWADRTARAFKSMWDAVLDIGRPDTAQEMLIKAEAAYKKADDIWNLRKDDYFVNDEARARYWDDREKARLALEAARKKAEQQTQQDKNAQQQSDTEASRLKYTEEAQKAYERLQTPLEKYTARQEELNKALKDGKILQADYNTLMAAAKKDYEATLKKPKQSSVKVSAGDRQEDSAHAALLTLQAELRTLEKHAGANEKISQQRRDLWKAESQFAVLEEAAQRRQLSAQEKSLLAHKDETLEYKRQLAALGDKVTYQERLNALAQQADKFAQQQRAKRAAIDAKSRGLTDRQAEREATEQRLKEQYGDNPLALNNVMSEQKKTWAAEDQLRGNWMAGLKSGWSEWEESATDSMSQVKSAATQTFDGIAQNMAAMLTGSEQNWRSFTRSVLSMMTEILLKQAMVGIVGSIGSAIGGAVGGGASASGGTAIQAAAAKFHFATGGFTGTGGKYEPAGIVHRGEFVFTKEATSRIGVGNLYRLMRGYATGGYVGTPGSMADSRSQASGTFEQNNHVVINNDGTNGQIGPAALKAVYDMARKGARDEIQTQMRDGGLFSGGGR

[5] = molecular target: T5, DNA packaging protein A (bacteriophage lambda) (UniProt P03708)
T5 sequence: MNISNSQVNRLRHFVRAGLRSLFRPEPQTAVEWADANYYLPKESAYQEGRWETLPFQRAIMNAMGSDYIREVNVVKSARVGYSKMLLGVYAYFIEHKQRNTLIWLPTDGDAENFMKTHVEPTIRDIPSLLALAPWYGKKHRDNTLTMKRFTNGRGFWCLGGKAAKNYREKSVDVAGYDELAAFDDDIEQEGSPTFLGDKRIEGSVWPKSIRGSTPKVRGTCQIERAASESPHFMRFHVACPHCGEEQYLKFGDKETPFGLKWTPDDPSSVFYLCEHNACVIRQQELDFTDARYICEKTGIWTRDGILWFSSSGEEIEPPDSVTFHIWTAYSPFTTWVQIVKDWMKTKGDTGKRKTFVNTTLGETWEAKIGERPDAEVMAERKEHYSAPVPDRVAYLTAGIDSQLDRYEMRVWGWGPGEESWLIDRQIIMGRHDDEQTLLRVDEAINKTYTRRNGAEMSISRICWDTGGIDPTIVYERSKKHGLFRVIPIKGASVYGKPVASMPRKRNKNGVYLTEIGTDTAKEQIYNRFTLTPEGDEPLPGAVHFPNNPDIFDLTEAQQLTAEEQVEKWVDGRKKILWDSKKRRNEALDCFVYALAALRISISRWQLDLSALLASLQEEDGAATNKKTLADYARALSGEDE

U (bacteriophage lambda) = molecular target: T6, U (bacteriophage lambda) (UniProt P03732)
T6 sequence: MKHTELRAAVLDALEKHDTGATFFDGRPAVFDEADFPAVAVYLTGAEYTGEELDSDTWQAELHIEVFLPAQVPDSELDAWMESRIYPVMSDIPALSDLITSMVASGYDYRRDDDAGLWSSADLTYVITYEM

[6] = molecular target: T7, antiterminator N (bacteriophage lambda) (UniProt P03045)
T7 sequence: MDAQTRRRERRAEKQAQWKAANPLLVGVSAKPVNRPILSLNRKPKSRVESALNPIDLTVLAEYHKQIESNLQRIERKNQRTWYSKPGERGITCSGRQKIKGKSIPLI

[7] = molecular target: scaffolding protein Nu3 (bacteriophage lambda)
[8] = molecular target: Ea8.5 (bacteriophage lambda)
[9] = molecular target: Orf79 (bacteriophage lambda)

## Orf64 (bacteriophage lambda)
[1]
  binding: binds

## Orf48 (bacteriophage lambda)
[2]
  binding: binds
[3]
  binding: binds

## Ren (bacteriophage lambda)
[3]
  binding: binds
[4]
  binding: binds

## Ea47 (bacteriophage lambda)
[5]
  binding: no binding
U (bacteriophage lambda)
  binding: binds
[6]
  binding: binds

B1: Z (protein, UniProt P03731 1-192)
chain: MAIKGLEQAVENLSRISKTAVPGAAAMAINRVASSAISQSASQVARETKVRRKLVKERARLKRATVKNPQARIKVNRGDLPVIKLGNARVVLSRRRRRKKGQRSSLKGGGSVLVVGNRRIPGAFIQQLKNGRWHVMQRVAGKNRYPIDVVKIPMAVPLTTAFKQNIERIRRERLPKELGYALQHQLRMVIKR
[7]
  binding: binds

B2: NinB (protein, UniProt P03765 1-146)
chain: MKKLTFEIRSPAHQQNAIHAVQQILPDPTKPIVVTIQERNRSLDQNRKLWACLGDVSRQVEWHGRWLDAESWKCVFTAALKQQDVVPNLAGNGFVVIGQSTSRMRVGEFAELLELIQAFGTERGVKWSDEARLALEWKARWGDRAA
[8]
  binding: binds
[9]
  binding: binds

No constants are given. Whether binding was seen depends on the method and setting. For some assays here: A result given as binding can be weak or reduced; the word gives no strength.
